Reference: the supplement of paper PMC12067093, “Discovery and optimisation of a covalent ligand for TRIM25 and its application to targeted protein ubiquitination” (Chemical Science, 2025)
The other results are listed elsewhere or left out.

Amino acid sequences for entries named in this document (tags omitted). A change or cut given only in a name is not applied to a line headed by its entry.
UniProt Q5SW79: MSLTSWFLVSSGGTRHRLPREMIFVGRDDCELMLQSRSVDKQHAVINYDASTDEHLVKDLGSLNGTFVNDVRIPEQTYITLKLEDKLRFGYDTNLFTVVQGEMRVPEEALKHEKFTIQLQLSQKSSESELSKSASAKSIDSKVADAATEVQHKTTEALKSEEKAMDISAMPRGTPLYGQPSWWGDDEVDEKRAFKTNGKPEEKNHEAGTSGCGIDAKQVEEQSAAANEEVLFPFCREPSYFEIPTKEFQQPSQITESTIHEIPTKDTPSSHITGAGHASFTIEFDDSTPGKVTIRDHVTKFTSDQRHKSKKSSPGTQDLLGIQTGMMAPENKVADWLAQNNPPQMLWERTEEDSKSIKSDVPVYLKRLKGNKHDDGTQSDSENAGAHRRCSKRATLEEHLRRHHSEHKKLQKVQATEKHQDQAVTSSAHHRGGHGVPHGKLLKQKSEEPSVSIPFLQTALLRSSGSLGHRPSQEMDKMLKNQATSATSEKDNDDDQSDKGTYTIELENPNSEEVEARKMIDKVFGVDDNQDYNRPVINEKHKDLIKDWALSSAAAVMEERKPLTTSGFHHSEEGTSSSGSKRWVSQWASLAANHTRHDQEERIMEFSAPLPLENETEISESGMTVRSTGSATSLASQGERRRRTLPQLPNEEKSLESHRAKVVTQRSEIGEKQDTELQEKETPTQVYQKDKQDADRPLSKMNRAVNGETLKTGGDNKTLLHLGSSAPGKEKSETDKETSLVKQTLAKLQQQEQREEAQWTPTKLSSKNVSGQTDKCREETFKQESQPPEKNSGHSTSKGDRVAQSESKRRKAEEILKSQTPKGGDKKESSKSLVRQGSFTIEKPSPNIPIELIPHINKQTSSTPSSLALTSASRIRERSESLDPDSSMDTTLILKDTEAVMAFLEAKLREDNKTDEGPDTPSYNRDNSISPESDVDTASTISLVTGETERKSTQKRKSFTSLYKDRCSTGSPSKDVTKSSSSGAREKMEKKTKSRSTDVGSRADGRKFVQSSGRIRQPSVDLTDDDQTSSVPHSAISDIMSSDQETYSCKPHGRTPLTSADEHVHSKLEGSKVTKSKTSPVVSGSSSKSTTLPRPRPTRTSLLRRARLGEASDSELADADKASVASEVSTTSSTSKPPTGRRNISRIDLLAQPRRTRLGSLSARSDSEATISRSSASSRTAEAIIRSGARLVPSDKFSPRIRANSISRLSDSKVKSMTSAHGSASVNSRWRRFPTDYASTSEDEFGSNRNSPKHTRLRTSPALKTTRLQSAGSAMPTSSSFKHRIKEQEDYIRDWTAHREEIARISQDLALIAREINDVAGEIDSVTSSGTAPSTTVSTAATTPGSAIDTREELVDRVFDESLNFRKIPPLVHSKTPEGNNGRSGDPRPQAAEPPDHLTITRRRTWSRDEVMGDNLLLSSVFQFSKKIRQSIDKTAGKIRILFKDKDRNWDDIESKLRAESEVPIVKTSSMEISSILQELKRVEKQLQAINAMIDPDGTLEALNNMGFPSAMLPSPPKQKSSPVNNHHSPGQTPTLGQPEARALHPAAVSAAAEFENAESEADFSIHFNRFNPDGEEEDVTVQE
UniProt P40227, whole entry, looked up: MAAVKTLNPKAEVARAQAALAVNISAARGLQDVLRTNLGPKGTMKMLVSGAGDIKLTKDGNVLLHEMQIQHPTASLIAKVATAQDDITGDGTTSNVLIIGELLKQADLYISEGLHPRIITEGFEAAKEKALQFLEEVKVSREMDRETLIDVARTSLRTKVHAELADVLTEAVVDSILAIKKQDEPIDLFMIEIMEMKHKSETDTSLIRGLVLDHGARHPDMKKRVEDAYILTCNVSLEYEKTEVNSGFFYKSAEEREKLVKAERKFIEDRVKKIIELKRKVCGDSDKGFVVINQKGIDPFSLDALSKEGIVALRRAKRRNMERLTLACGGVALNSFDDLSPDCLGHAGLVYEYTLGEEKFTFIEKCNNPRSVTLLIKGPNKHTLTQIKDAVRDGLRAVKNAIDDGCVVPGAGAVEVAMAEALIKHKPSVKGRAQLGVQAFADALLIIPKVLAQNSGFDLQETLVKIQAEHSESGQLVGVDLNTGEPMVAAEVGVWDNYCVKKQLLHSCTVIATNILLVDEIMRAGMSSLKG
UniProt P30260, whole entry, looked up: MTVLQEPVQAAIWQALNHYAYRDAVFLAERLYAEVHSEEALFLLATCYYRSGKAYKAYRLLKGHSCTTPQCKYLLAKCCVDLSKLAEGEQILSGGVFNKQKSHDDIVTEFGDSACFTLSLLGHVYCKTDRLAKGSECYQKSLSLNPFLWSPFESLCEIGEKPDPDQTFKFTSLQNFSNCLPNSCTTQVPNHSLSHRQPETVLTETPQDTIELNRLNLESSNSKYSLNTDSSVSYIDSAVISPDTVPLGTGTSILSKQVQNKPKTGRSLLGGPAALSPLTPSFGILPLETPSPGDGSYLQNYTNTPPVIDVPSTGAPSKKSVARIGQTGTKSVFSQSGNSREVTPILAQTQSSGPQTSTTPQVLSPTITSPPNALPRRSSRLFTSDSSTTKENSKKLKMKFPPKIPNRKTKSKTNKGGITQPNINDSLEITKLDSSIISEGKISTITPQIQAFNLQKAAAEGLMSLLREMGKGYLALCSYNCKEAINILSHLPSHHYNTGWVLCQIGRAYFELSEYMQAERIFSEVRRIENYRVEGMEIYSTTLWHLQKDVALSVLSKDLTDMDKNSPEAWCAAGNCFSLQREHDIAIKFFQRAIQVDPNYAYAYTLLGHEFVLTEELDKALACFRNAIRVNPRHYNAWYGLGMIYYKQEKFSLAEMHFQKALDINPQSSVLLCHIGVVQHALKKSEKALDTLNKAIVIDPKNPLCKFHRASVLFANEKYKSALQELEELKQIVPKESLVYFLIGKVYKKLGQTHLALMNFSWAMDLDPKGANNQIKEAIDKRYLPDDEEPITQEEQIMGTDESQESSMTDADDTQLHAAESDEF
UniProt Q9BV73: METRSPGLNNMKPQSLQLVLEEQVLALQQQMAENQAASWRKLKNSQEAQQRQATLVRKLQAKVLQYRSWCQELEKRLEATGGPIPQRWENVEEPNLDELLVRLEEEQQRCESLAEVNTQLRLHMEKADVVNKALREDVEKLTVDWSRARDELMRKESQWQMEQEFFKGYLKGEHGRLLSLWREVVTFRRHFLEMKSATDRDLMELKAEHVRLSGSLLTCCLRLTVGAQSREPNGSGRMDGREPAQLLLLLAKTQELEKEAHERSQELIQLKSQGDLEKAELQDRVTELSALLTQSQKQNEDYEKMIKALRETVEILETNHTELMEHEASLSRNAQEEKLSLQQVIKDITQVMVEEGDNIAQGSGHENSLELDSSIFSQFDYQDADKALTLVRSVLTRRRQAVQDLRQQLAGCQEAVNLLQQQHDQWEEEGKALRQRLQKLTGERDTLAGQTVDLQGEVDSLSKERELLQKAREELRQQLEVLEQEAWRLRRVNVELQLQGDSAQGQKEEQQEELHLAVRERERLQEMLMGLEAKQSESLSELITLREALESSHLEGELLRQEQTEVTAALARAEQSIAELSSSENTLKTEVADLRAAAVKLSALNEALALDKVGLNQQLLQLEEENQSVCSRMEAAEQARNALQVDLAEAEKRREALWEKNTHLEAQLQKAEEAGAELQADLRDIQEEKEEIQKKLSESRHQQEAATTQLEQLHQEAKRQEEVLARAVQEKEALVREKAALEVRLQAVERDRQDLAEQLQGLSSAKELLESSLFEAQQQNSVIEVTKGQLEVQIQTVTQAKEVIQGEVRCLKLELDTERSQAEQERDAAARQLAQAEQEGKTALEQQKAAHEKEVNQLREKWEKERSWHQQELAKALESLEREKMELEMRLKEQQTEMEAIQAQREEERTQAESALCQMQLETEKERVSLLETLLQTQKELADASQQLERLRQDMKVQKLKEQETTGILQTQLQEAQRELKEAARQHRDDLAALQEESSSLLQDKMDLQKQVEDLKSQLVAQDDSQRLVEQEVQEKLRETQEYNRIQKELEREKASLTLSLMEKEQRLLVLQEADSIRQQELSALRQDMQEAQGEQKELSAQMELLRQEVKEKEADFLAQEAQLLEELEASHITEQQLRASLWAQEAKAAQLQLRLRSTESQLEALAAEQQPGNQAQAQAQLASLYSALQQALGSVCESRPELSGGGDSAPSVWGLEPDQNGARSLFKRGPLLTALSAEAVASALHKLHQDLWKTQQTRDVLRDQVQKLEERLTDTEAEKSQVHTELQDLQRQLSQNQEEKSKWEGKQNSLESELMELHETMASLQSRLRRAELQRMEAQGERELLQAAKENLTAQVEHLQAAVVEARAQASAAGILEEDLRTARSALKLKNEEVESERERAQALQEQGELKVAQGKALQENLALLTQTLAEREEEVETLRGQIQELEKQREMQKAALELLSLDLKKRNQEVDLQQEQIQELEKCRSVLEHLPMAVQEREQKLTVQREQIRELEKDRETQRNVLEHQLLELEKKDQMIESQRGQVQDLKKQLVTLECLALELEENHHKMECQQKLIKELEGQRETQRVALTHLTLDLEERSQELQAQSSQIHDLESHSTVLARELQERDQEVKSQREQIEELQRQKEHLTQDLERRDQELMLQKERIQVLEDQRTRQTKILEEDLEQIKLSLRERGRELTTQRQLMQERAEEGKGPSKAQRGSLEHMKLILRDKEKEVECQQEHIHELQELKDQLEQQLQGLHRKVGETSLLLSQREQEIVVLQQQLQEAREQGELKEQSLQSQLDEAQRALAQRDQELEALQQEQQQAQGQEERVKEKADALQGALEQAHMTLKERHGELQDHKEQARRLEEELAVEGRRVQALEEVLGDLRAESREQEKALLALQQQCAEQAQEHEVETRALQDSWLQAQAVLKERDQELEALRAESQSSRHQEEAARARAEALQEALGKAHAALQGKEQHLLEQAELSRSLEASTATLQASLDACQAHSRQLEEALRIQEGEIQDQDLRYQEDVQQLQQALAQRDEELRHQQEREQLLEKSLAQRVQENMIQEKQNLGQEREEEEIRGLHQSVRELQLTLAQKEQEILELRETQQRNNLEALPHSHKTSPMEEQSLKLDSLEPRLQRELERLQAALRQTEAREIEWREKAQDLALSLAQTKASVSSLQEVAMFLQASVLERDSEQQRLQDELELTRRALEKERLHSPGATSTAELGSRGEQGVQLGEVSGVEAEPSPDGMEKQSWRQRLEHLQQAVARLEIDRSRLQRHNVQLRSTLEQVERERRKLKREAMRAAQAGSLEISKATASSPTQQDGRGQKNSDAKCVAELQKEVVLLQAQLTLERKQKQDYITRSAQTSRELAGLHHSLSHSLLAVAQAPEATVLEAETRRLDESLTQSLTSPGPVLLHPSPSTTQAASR
UniProt P16070: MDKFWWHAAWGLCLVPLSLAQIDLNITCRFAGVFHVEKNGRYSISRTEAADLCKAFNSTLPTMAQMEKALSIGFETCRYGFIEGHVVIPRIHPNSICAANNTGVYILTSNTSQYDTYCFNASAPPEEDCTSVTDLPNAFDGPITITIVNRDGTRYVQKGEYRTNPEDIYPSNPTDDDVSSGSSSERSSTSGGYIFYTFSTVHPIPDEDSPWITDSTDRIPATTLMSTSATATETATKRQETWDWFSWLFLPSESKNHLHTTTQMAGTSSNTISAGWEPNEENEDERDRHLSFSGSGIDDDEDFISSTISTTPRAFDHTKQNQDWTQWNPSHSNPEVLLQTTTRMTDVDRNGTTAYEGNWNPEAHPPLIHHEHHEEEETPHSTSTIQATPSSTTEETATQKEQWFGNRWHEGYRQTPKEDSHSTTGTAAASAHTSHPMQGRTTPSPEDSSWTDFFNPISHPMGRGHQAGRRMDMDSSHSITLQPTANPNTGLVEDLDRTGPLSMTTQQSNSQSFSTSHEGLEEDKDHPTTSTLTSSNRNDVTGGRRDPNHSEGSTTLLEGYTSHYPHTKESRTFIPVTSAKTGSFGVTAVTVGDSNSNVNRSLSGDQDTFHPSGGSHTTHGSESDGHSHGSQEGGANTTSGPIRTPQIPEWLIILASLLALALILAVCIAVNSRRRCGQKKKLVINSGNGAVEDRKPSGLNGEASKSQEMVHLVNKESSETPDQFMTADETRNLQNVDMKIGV
UniProt P13987: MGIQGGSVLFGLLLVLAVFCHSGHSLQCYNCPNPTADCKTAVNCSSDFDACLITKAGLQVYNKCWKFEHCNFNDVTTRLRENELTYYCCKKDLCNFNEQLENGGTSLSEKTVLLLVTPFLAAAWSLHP
UniProt Q00535, whole entry, looked up: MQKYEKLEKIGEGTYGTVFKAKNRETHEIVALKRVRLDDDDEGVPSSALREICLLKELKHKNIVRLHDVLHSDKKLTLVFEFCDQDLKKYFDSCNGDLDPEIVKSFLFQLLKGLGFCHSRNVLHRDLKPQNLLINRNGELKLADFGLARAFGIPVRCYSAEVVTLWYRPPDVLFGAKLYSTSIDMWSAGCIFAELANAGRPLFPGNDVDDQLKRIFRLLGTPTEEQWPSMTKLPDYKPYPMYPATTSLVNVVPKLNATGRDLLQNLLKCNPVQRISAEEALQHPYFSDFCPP

Compound: Cc1cc(ccc1-c1ccccc1)C(=O)N1CCCN(CC1)C(=O)CCl [compound 10]
Assay: probe-labelled cysteine peptide fold change vs DMSO (competition) (log2 fold change); higher = less target engagement (more negative = stronger competition)
Settings: THP-1, incubation time: 4 h
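Also: competitive profiling in live THP-1 cells: cysteine peptides tagged with an iodoacetamide desthiobiotin (IA-DTB) probe, intensity after compound treatment relative to DMSO-treated cells.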

Target | probe-labelled cysteine peptide fold change (10 µM) | probe-labelled cysteine peptide fold change (50 µM)
CCT7_Q99832_326_TMMACGGSIQTSVNALSADVLGR (UniProt Q99832) | 0.0223 | -0.163
CDC45_O75419_267_HNHRNEDEENTLSVDCTR (UniProt O75419) | 0.0632 | -0.279
CFAP20_Q9Y6A4_119_VKPFICTMPMR (UniProt Q9Y6A4) | 0.0829 | -0.0715
CD63_P08962_177_NRVPDSCCINVTVGCGINFNEK (UniProt P08962) | 0.0454 | 0.0187
CD38_P28907_82_HVDCQSVWDAFK (UniProt P28907) | -0.000509 | 0.256
CEP170_Q5SW79_776_CREETFKQESQPPEK (UniProt Q5SW79) | -0.0718 | -0.739
CCT7_Q99832_345_CQVFEETQIGGER (UniProt Q99832) | 0.0913 | 0.138
CD4_P01730_41_KGDTVELTCTASQK (UniProt P01730) | -0.413 | -0.0824
CEP76_Q8TAP6_156_SKPVPCACEPDFHDGFLLEVHR (UniProt Q8TAP6) | 0.00849 | -0.166
CEP152_O94986_732_EVTAVQECYLEVCR (UniProt O94986) | 0.205 | 0.244
CD3EAP_O15446_150_FCAFGGNPPVTGPR (UniProt O15446) | -0.0579 | 0.00679
CDKN2C_P42773_141_NHKGDTACDLAR (UniProt P42773) | 0.164 | -0.599
CDC16_Q13042_544_CYDFDVHTMK (UniProt Q13042) | -0.163 | -0.226
CDC20_Q12834_403_IWNVCSGACLSAVDAHSQVCSILWSPHYK (UniProt Q12834) | 0.3 | 0.258
CCT6A_P40227_233_RVEDAYILTCNVSLEYEK (UniProt P40227) | 0.118 | 0.3
CDC27_P30260_503_EAINILSHLPSHHYNTGWVLCQIGR (UniProt P30260) | 0.179 | 0.123
CDK11B_P21127_440_SVEEFQCLNR (UniProt P21127) | -0.225 | -0.28
CEP192_Q8TEP8_882_TCSIDNK (UniProt Q8TEP8) | -0.184 | -0.345
CFAP298_P57076_45_LCSEMEELAEHGIFLPPNMQGLTDDQIEELK (UniProt P57076) | 0.268 | 0.46

Target | probe-labelled cysteine peptide fold change (10 µM) | probe-labelled cysteine peptide fold change (50 µM)
CD68_P34810_207_VQGSCEGAHPHLLLSFPYGHLSFGFMQDLQQK (UniProt P34810) | 0.0497 | 0.0854
CEP250_Q9BV73_2348_CVAELQK (UniProt Q9BV73) | -0.0127 | -0.282
CD44_P16070_77_ALSIGFETCR (UniProt P16070) | -0.124 | -0.0909
CDC27_P30260_673_ALDINPQSSVLLCHIGVVQHALK (UniProt P30260) | 0.136 | 0.0245
CDC37_Q16543_336_CIDSGLWVPNSK (UniProt Q16543) | 0.17 | 0.0591
CDKN2AIP_Q9NXV6_503_SSQESIVCELR (UniProt Q9NXV6) | 0.153 | -0.247
CD59_P13987_70_FEHCNFNDVTTR (UniProt P13987) | -0.114 | -0.076
CEP120_Q8N960_762_AKEDCIHQVELER (UniProt Q8N960) | 0.0554 | -0.117
CENPC_Q03188_291_HAATAPPHSCPPDDTK (UniProt Q03188) | 0.0866 | -0.0296
CCT7_Q99832_310_LPIGDVATQYFADRDMFCAGR (UniProt Q99832) | -0.113 | -0.214
CCT6A_P40227_233_KRVEDAYILTCNVSLEYEK (UniProt P40227) | 0.071 | -0.45
CD97_P48960_513_GGHWATEGCQVLGSK (UniProt P48960) | -0.139 | -0.0119
CEP170_Q5SW79_30_EMIFVGRDDCELMLQSR (UniProt Q5SW79) | -0.075 | 0.0343
CERS6_Q6ZMG9_380_NPHTATTTNGTSGTNGYLLTGSCSMDD (UniProt Q6ZMG9) | -0.421 | -0.475
CDK5_Q00535_83_LTLVFEFCDQDLK (UniProt Q00535) | -0.00543 | 0.283
CENPF_P49454_1790_HDVHQICDK (UniProt P49454) | -0.242 | 0.209
CENPV_Q7Z7K6_152+154_HTGGCHCGAVR (UniProt Q7Z7K6) | 0.00162 | 0.119
CD70_P32970_8_PEEGSGCSVR (UniProt P32970) | -0.461 | -0.763
CD44_P16070_53_TEAADLCK (UniProt P16070) | -0.237 | -0.12

Whole records from above:
CENPC_Q03188_291_HAATAPPHSCPPDDTK (UniProt Q03188) reads probe-labelled cysteine peptide fold change (10 µM): 0.0866; probe-labelled cysteine peptide fold change (50 µM): -0.0296
CEP250_Q9BV73_2348_CVAELQK (UniProt Q9BV73) reads probe-labelled cysteine peptide fold change (10 µM): -0.0127; probe-labelled cysteine peptide fold change (50 µM): -0.282
